Consider 8 molecules from patent US20090130123A1.

Chains of the proteins cited; added tags and fusions are not shown. Residues count along the entry.
WNV E protein ectodomain displayed on yeast (Q9Q6P4, residues 291-705): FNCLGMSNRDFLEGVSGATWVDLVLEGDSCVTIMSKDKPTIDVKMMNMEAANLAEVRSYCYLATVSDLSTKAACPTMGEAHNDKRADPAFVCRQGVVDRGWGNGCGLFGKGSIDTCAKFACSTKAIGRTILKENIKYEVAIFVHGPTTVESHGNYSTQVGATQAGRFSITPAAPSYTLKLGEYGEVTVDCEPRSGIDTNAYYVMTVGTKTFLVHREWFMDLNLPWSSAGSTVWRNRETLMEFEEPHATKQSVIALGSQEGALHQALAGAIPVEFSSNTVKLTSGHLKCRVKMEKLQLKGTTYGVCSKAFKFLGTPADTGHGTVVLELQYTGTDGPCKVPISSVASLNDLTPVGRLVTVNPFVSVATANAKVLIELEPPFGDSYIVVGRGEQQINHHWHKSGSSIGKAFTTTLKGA
Recombinant WNV-E protein ectodomain (Q9Q6P4, residues 291-700): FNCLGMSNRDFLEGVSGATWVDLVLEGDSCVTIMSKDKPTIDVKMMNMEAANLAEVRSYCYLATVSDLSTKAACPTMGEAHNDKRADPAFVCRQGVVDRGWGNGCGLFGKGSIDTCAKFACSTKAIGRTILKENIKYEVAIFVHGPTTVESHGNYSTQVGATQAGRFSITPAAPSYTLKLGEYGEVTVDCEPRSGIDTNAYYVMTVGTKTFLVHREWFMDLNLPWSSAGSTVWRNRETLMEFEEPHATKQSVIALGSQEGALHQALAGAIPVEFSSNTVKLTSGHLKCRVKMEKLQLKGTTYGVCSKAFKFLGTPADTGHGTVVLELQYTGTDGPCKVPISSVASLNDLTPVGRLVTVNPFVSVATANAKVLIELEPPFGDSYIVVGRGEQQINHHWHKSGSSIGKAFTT
WNV E protein DI/DII displayed on yeast (Q9Q6P4, residues 291-586): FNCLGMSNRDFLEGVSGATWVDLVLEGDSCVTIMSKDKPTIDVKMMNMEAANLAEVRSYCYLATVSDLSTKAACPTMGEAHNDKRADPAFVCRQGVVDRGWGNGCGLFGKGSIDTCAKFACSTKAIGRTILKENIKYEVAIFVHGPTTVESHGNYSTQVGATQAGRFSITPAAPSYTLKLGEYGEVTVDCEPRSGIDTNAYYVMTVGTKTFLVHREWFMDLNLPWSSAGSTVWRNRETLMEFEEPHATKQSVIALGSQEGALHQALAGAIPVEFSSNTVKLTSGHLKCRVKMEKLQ

The target of assay [1] is Recombinant WNV-E protein ectodomain (West Nile virus) (UniProt Q9Q6P4). In words: ELISA on coated rWNV-E, anti-His6-HRP. (In an ELISA, binding on a coated surface is turned into a signal by an enzyme label.)
For assay [2] the target is unchanged. In words: ELISA; plate coated with rWNV-E (1 ug/ml), purified His6-tagged scFv, anti-His6-HRP, OD450.
In assay [3] the target is WNV E protein DI/DII displayed on yeast (Saccharomyces cerevisiae; West Nile virus) (UniProt Q9Q6P4). Kind of assay: flow cytometry on yeast displaying WNV E DI/DII (pYD1); % positive cells.
Assay [4] deals with WNV E protein ectodomain displayed on yeast (Saccharomyces cerevisiae; West Nile virus) (UniProt Q9Q6P4). In words: flow cytometry on yeast displaying the WNV E ectodomain (pYD1); % positive cells. For orientation: Flow cytometry measures light scatter and fluorescence of single cells or particles in a stream.

Positions count from the first letter of the chain named. These are yes or no findings as the source states them, for the method shown. Some binding calls cover weakened binding; strength is not graded here.

B1: scFv 73 (scFv)
scFv: MAQVQLVQSGAEVKKPGASVKVSCKASGYTFSGYSTHWLRQVPGQGLEWIGWDNPSSGDTTYAENFRGRVTLTRDTSITTDYLEVRGLRSDDTAVYYCARGGDDYSFDHWGQGTLVTVSSGGGGSGGGGSGGGGSSYELTQPPSASGTPGQRVTISCSGSSSNIGSNTVNWYQQLPGTAPKLLIYSNNQRPSGVPDRFSGSKSGTSASLAISGLQSEDEADYYCAAWDARLTGPLFGGGTKLSVLRQPKAAPSAAAEQKLISEEDL
B1: in assay [1], the binding result is “binds”.

B2: scFv 71 (scFv)
scFv: B1 scFv with P149T, F198L
Consider B2, for which the binding result in assay [1] is reported as “binds”.

B3: scFv 10 (scFv, not shown: small tags and cut ends)
scFv: MAQVQLVQSGAEVKKPGSSVKVSCKASGYTFSGYSTHWLRQVPGQGLEWIGWDNPSSGDTTYAENFRGRVTLTRDTSITTDYLEVRGLRSDDTAVYYCARGGDDYSFDHWGQGTLVTVSSSGGGSGGGGSGGGGSQTVVTQEPSFSVSPGGTITLTCGLSSGSVFTSYYPSWYQQTPGQAPRTLIYSTNTRSSGVPDRFSGSILGNKAALTITGAQADDESDYYCVLYMGSGIGVFGTGTKVTVLGQPKAAPSAAAEQKLISEEDL
Consider B3, for which the binding entry in assay [1] and in assay [2] was “binds” throughout.

B4: scFv 85 (scFv, not shown: small tags and cut ends)
scFv: MAQVQLVQSGAEVKKPGASVKVSCKASGYTFSGYSTHWLRQVPGQGLEWIGWDNPSSGDTTYAENFRGRVTLTRDTSITTDYLEVRGLRSDDTAVYYCARGGDDYSFDHWGQGTLVTVSSGGGGSGGGGSGGGGSSSELTQDPAVSVALGQTVTITCQGGGLRNYYASWYQQKPGQAPVLLVYGRDNRPSGIPDRFSGSSSGNTASLTITGAQAEDEADYYCNSRDSSGNHLVFGGGTKLTVLGQPKATPSAAAEQKLISEEDL
With B4, the binding entry in assay [1] and in assay [2] was “binds” throughout.

B5: scFv 15 (scFv)
scFv: MAQVQLVQSGAEVKKPGASVKVSCKASGYTFSGYSTHWLRQVPGQGLEWIGWDNPSSGDTTYAENFRGRVTLTRDTSITTDYLEVRGLRSDDTAVYYCARGGDDYSFDHWGQGTLVTVSSGGGGSGGGGSGGGGSQSALTQPASVSGSPGQSITISCTGTNSDVGIYNLVSWYQQHPGKAPKLMIYDVSNRPSGVSSRFSGSNSGNTATLTISGLQAEDEADYYCSAHAGDNTQFGGGTKLTVLSQPKAAPSAAAEQKLISEEDL
Take B5: the binding result in assay [1] is “binds”.

B6: scFv 11 (scFv)
scFv: MAQVQLVQSGAEVKKPGASVKVSCKASGYTFSGYSTHWLRQVPGQGLEWIGWDNPSSGDTTYAENFRGRVTLTRDTSITTDYLEVRGLRSDDTAVYYCARGGDDYSFDHWGQGTLVTVSSGGGGSGGGGSGGGGSSSELTQDPAVSVALGQTVRITCRGDSLRSYYASWYQQKPGQAPVLVIYGENNRPSGIPDRFSGSSSGDTASLTITGAQAEDEADYYCNSRDSSDHLLLFGGGTKLTVLGQPKATPSAAAEQKLISEEDL
B6: in assay [1], the binding entry is recorded as “binds”.

B7: 10 (Fc fusion)
scFv-Fc chain: QVQLVQSGAEVKKPGSSVKVSCKASGYTFSGYSTHWLRQVPGQGLEWIGWDNPSSGDTTYAENFRGRVTLTRDTSITTDYLEVRGLRSDDTAVYYCARGGDDYSFDHWGQGTLVTVSSSGGGSGGGGSGGGGSQTVVTQEPSFSVSPGGTITLTCGLSSGSVFTSYYPSWYQQTPGQAPRTLIYSTNTRSSGVPDRFSGSILGNKAALTITGAQADDESDYYCVLYMGSGIGVFGTGTKVTVLG
B7: the binding entry in assay [3] and in assay [4] was “binds” throughout.

B8: scFv 84 (scFv)
scFv: MAQVQLVQSGAEVKKPGASVKVSCKASGYTFSGYSTHWLRQVPGQGLEWIGWDNPSSGDTTYAENFRGRVTLTRDTSITTDYLEVRGLRSDDTAVYYCARGGDDYSFDHWGQGTLVTVSSGGGGSGGGGSGGGGSQSVLTQPPSVSVAPGKTARIPCGGNNSGTKSVHWYQQKPGQAPVLVIYDDRVRPSGIPERFSGSNSGDTATLTISRVAAGDEADYYCQVSDGSGDPPTWVFGGGTRLTVLGQPKAAPSAAAEQKLISEEDL
Regarding B8, the binding result in assay [1] is “binds”.
